Data taken from PMC7618200 (The Biochemical journal, 2025).
No constants are given. Whether binding was seen depends on the method and setting. In cells and extracts the contact can be indirect. Some binding calls cover weakened binding; strength is not graded here. For part of these data: Where a sequence is shown, tags or fusion partners need not be part of it.

The chains behind the UniProt entries cited, without tags or fusion partners.
UniProt Q9Y6Q9: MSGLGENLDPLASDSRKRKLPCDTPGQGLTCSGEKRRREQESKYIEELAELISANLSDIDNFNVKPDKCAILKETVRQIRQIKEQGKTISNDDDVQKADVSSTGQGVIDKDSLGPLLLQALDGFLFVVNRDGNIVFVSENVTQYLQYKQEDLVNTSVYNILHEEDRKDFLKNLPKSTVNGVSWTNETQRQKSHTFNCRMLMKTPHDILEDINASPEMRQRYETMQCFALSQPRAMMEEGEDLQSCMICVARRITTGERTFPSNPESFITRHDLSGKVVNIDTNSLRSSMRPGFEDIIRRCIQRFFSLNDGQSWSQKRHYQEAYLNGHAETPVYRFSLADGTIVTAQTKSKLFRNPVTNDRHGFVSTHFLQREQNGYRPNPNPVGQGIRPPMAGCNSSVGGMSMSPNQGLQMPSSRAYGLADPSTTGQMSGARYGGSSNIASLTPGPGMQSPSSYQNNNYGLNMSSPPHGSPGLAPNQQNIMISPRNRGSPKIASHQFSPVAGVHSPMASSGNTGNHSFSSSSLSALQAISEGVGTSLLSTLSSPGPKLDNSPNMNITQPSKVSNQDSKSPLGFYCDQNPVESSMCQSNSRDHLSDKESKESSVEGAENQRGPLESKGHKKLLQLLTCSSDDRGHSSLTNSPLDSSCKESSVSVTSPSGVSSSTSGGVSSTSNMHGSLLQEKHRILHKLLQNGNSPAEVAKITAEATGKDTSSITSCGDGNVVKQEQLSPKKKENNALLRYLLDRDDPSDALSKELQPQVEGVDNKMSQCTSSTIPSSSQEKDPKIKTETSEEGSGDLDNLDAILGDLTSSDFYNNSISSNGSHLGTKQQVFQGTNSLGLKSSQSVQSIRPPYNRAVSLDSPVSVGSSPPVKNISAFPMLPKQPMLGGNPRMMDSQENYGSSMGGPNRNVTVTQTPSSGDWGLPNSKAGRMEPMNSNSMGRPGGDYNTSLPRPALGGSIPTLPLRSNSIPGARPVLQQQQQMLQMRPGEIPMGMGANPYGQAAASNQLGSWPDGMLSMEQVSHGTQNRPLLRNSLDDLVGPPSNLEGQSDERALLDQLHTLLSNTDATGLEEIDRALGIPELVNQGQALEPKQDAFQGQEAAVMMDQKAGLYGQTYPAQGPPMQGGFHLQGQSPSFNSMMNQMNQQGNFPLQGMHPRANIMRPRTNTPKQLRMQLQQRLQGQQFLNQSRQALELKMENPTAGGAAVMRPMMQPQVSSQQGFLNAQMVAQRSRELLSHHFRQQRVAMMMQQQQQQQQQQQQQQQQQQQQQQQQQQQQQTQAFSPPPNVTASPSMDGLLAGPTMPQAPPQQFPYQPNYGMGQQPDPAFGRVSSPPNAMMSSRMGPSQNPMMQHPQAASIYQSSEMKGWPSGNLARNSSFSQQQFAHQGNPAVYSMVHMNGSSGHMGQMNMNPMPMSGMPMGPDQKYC
UniProt O43791: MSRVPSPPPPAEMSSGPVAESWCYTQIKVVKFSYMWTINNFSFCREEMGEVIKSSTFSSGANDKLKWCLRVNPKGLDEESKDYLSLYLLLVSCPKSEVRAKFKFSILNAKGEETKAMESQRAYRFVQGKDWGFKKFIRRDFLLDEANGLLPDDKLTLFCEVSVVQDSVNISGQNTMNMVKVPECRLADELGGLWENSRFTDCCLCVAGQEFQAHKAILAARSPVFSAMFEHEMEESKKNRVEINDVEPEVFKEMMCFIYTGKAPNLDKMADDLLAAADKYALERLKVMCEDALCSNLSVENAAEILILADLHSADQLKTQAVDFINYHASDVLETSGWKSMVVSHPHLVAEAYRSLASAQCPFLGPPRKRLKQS

Key:
Experiment in all cases: co-IP; anti-FLAG M2 agarose IP from NP-40 lysates of HEK293T cells overexpressing 2× FLAG-tagged protein; cells treated with 5 μM MLN4924 for 6 hours; immunoblot
[1] = target: FLAG-tagged SRC-3 (NCOA3, full length) (human) (UniProt Q9Y6Q9)
[2] = target: T1, FLAG-tagged Caprin1 (full length) (human) (UniProt Q14444)
T1 sequence: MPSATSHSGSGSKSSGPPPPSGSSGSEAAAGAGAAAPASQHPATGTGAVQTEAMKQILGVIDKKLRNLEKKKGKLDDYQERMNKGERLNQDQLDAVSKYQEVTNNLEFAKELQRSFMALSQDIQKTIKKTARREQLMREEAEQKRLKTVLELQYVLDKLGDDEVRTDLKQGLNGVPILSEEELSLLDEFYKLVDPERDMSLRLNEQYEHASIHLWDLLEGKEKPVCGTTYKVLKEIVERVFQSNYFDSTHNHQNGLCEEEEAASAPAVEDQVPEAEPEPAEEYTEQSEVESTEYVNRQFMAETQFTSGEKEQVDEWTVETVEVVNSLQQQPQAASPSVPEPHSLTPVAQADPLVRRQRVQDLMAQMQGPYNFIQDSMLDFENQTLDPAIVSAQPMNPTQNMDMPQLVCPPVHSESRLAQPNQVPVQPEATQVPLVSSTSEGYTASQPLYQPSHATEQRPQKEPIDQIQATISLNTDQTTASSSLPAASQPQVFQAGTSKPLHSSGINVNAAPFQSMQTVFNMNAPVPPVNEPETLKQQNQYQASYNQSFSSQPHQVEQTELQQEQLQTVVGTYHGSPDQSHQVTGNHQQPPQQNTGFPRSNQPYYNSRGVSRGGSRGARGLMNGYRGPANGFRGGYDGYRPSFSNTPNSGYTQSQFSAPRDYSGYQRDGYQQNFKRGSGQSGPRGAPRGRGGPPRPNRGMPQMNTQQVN

[3] = target: T2, FLAG-tagged SENP7 (full length) (human) (UniProt Q9BQF6)
T2 sequence: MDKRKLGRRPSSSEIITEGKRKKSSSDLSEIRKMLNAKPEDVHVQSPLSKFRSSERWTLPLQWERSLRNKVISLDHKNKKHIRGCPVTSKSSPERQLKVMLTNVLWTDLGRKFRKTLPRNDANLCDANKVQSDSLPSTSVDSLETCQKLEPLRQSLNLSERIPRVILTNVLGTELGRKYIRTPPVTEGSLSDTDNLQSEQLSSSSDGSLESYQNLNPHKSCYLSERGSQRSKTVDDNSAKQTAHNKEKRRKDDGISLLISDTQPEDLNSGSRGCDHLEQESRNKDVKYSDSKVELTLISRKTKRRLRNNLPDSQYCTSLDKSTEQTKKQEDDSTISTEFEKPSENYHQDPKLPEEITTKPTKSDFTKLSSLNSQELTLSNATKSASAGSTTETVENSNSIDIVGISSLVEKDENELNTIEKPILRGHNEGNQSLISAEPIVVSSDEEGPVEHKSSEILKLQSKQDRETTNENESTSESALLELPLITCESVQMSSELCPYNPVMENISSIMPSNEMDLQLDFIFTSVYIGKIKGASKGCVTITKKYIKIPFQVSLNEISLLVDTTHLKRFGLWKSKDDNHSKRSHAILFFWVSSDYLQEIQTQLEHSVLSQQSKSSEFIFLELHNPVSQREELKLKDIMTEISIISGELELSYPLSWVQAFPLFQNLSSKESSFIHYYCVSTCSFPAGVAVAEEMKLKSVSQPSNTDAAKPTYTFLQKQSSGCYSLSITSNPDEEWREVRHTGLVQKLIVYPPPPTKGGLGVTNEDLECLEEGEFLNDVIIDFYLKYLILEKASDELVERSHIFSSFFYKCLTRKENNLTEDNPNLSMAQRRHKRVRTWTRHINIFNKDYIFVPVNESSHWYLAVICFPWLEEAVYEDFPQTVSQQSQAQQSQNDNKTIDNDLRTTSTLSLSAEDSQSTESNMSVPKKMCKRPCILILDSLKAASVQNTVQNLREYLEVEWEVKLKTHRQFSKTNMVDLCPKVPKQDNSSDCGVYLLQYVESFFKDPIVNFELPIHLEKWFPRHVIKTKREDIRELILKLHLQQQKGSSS

Measured: binding

endogenous SPOP (speckle-type BTB/POZ protein) (from UniProt O43791 1-374)
binds: all assays above
